Key:
[1] = Comparative conditioning properties: wet comb, dry comb, flyaway of treated hair tresses; conditions: conditioner base with 2.5% actives; rating of 1 best, 10 poor
[2] = Rubine Dye Uptake Test (substantivity); conditions: 0.50 % active quaternary; wool swatch, depth of dye uptake; rating of 1 is the best, 10 is poor

Compound | DRY COMB [1] | WET COMB [1] | Substantivity RATINGS [2]
CCCCCCCCCCCCCCCC[N+](C)(C)C.[Cl-] [Cetyl Trimethyl Ammonium Chloride, Cetyl trimethyl ammonium chloride] | 3 | 7 | 2
CCCCCCCCCCCCCCCCCC[N+](C)(C)C.[Cl-] [Stearalkonium Chloride, Stearyl Trimethyl Ammonium Chloride] | 4 | 5 | 2
N′,N″,N′″-Triethyl, N′,N′,N′″,N′″-Tetramethyl, N″-[(Trioxypropyl)-ω-hydroxycetyl], dipropylene triammonium triethosulfate [FINQUAT ® CT-P] | 1 | 2 | 1
